Measurements: PubChem BioAssay AID743255 (National Center for Advancing Translational Sciences (NCATS), 2014)
The campaign covered roughly 390,000 compounds. About 910 (0.23%) were called active. Inconclusive means that the source gave no clear call. Such entries were picked first, then a sample of the others. The call rests on the fitted dose curve; in most records, active means well fitted inhibition curve with a large enough effect; inconclusive means small, poorly fitted or top-dose-only effect; inactive means no such curve, though single readings can be large or run the other way. A potency beside an inconclusive call is a rough fit, not a confirmed value.

Chains of the proteins cited; added tags and fusions are not shown. Lines headed by an entry give the natural chain unless they say otherwise; changes in a name come on top.
UniProt O94782: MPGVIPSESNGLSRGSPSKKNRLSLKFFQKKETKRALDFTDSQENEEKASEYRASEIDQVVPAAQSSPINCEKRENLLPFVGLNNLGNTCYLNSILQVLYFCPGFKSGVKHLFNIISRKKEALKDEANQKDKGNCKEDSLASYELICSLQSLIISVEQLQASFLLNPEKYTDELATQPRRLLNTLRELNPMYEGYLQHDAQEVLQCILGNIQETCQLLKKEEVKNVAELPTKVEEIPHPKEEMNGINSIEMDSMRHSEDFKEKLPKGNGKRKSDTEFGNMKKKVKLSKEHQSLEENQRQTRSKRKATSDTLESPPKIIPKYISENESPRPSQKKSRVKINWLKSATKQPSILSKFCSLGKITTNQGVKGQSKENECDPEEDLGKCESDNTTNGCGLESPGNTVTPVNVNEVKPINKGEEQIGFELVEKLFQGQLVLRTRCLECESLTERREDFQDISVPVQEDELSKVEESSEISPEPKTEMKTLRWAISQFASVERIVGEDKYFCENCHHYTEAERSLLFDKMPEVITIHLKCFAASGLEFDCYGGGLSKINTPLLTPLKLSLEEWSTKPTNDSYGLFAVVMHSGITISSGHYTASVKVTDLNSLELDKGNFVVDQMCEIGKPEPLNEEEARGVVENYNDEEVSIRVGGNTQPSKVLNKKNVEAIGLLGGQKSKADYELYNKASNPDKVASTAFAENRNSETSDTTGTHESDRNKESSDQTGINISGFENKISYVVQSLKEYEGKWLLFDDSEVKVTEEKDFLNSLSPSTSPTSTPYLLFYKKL

molecular target: Ubiquitin carboxyl-terminal hydrolase 1 (Homo sapiens) (UniProt O94782); test: Inhibitors of USP1/UAF1: Primary Screen; details: recombinant USP1/UAF1, Ub-Rhodamine cleavage fluorescence; series mostly up to 57.1 µM; further: nearly all actives have a fitted effect of over 60% in size
Procedure, shortened: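 USP1/UAF1 complex (1 nM) preincubated 15 min at room temperature with compound, then Ub-Rho substrate (150 nM final) added. Kinetic fluorescence at 480/540 nm over 6 reads at 60 s intervals; 50 mM HEPES pH 7.8, 0.5 mM EDTA, 0.1 mg/ml BSA, 1 mM TCEP, 0.01% Tween-20.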
Potency means the concentration at half of the fitted maximal effect.

SMILES | Potency
O=C(O)c1ccc(COc2ccc3ccccc3c2/C=C2/NC(=O)N(c3ccccc3)C2=O)cc1 | inactive
Cc1cc(C)cc(N(C)S(=O)(=O)c2nnc(NC(=O)COc3ccc(C)c(C)c3)s2)c1 | inconclusive: 7.94 µM [inhibitor, single point]
CCOC(=O)/C(C#N)=C\c1ccc(N2CCN(C/C=C/c3ccccc3)CC2)cc1 | active: 28.2 µM
O=c1/c(=C\c2cc([N+](=O)[O-])cc([N+](=O)[O-])c2O)sc2nc3ccccc3n12 | inconclusive: 31.6 µM [inhibitor, partial curve]
CCCN(C(=O)C1CCN(S(=O)(=O)c2c(C)noc2/C=C/c2ccc(C)cc2)CC1)c1ccccc1F | inactive
O=C(Nc1ccccc1)c1ccc2nc(-c3ccco3)c(-c3ccco3)nc2c1 | inactive
Oc1ccccc1-c1csc(-c2ccccc2)n1 | inconclusive: 25.1 µM [inhibitor, single point]
CCOC(=O)CC(NC(=O)c1cc2cccc(OC)c2oc1=O)c1ccc(OC)cc1 (stereo not drawn) | inactive
C/C(=N\Nc1nncc2ccccc12)c1cccc(OC(F)F)c1 | inconclusive: 5.01 µM [inhibitor, partial curve, poor fit]
CCc1ccccc1Nc1nn2c(=O)c3ccc(C(=O)NCCc4ccccc4)cc3nc2s1 | inconclusive: 0.891 µM [inhibitor, full curve]
O=C1C[C@@H]2c3c(cccc3CN1Cc1ccc(Cl)cc1)C[C@@H](O)[C@H]2O | inconclusive: 5.01 µM [inhibitor, partial curve]
CC1CCN(c2c(NCc3ccc(C(=O)NCc4ccco4)cc3)c(=O)c2=O)CC1 | inconclusive: 0.708 µM [inhibitor, full curve, poor fit]
CSc1ccccc1NC(=O)C1C2CCC(C2)C1C(=O)O (stereo not drawn) | inconclusive: 10 µM [inhibitor, partial curve, poor fit]
O=C(Nc1nc(-c2cccc([N+](=O)[O-])c2)cs1)C(c1ccccc1)c1ccccc1 | inactive
O=C(CN1C(=O)CCSc2ccc(S(=O)(=O)N3CCCC3)cc21)Nc1cccc(Cl)c1 | inconclusive: 7.94 µM [inhibitor, partial curve, poor fit]
Cc1ccc(Cn2c(C(C)Nc3nc(-c4ccc(C)cc4)cs3)nc3cc(Cl)c(Cl)cc32)cc1 (stereo not drawn) | inconclusive: 39.8 µM [inhibitor, partial curve, poor fit]
C#CCn1c(O)c(N=NC(=O)CNC(=O)/C=C/c2ccccc2)c2ccccc21 | inactive
Cc1oc(C)c2c(=O)ccc3c(c12)OC(N)=C(C#N)C3c1ccccc1 (stereo not drawn) | inconclusive: 35.5 µM [inhibitor, partial curve]
COc1cccc2sc(N3CCN(C(=O)c4ccc([N+](=O)[O-])o4)CC3)nc12 | inactive
Cc1ccc2c(CNCc3cccs3)c(C(=O)O)n(Cc3ccc(F)cc3)c2c1 | inactive
O=C(N/N=C/c1coc2ccccc2c1=O)c1ccccc1 | inconclusive: 31.6 µM [inhibitor, partial curve]
Cc1ccccc1CNC(=O)C(=O)NCC(c1ccco1)S(=O)(=O)c1ccc(F)cc1 (stereo not drawn) | inconclusive: 0.282 µM [inhibitor, full curve]

Individual results from above.
Cc1oc(C)c2c(=O)ccc3c(c12)OC(N)=C(C#N)C3c1ccccc1 (stereo not drawn) – Potency: inconclusive: 35.5 µM [inhibitor, partial curve]
O=C(Nc1nc(-c2cccc([N+](=O)[O-])c2)cs1)C(c1ccccc1)c1ccccc1 – Potency: inactive
Cc1ccc(Cn2c(C(C)Nc3nc(-c4ccc(C)cc4)cs3)nc3cc(Cl)c(Cl)cc32)cc1 (stereo not drawn) – Potency: inconclusive: 39.8 µM [inhibitor, partial curve, poor fit]

Following part.

SMILES | Potency
Cc1nc(C#N)c(N/N=C/c2cccc(Cl)c2)o1 | inconclusive: 7.94 µM [inhibitor, partial curve, poor fit]
O=C(COc1cccc(Cl)c1)NNC(=S)Nc1ccccc1 | inactive
CN1CCc2c(sc(/N=C/c3c[nH]c4ccccc34)c2C#N)C1 | inconclusive: 7.94 µM [inhibitor, partial curve]
CCNc1nc(N)c(C(=C(C#N)C#N)c2ccccc2)s1 | inactive
CCCS(=O)(=O)N1CCC(N2CCN(Cc3ccc(C)cc3)C(=O)C2=O)CC1 | inconclusive: 6.31 µM [inhibitor, full curve, poor fit]
CCN(CC)c1ccc(NC(=O)COC(=O)CCC(=O)c2cccs2)cc1 | inactive
Cc1cc(C(=O)OCC(=O)Nc2ccc(F)c(F)c2F)c(C)o1 | inactive
CN1C(C)(C)c2ccccc2OS1(=O)=O | inconclusive: 63.1 µM [inhibitor, partial curve, poor fit]
Clc1cccc(-c2cc3nc4c(c(NCc5ccco5)n3n2)CCCC4)c1 | inconclusive: 25.1 µM [inhibitor, partial curve]
Cn1ncc(C(=O)N2CCN(c3ccccc3)CC2)c1C1CCN(C(=O)OC(C)(C)C)CC1 | inconclusive: 141 µM [inhibitor, partial curve, poor fit]
Cc1ccc(S(=O)(=O)N2CCC(C(=O)NCC3CCCCC3)CC2)cc1 | inconclusive: 44.7 µM [inhibitor, single point]
C#Cc1cccc(C(=O)N2CCCC(CCC(=O)NCc3ccccc3F)C2)c1 (stereo not drawn) | inactive
Cc1oc2c(c1C(=O)c1ccc(Cl)cc1)C(=O)C(=O)c1ccccc1-2 | inconclusive: 25.1 µM [inhibitor, partial curve]
Cc1cccc(NC(=O)C(c2ccccc2)N2Cc3ccccc3C2=O)c1C (stereo not drawn) | inactive
Cn1nc(-c2ccccc2)c(CSc2cccc(Cl)c2)c1Cl | inconclusive: 10 µM [inhibitor, full curve]
Cc1ccc2nc(/C(C#N)=C/c3ccc(-c4ccccc4C(=O)O)o3)[nH]c2c1 | active: 31.6 µM
Cc1cccc(CNC(=O)c2ccc(-c3nc(CS(=O)(=O)c4ccccc4)c(C)o3)cc2)c1 | inconclusive: 14.1 µM [inhibitor, partial curve]
CN(C(=O)COC(=O)c1cccs1)c1c(N)n(Cc2ccccc2)c(=O)[nH]c1=O | inconclusive: 5.01 µM [inhibitor, full curve]
COc1ccc(S(=O)(=O)N(CC(=O)NC2CC3CCC2C3)c2ccccc2OC)cc1 (stereo not drawn) | inactive
O=C(Nc1ccc(Br)cc1)c1ccc(-n2cnnn2)cc1 | inconclusive: 56.2 µM [inhibitor, partial curve, poor fit]
CCNC(=S)N1C2CCC1CC(NC(=O)NC1CCCCC1)C2 (stereo not drawn) | inconclusive: 12.6 µM [inhibitor, partial curve, poor fit]
